# Where two headings read alike, the source gives them in different places. The source gives many values for each of these; only a part stands here.
# System: human precision cut liver slices (PCLS)
# Test: PCLS RNA-Seq, Nonstimulation Protocol: Non-stimulated+CRV vs Non-stimulated+Vehicle
# Type: cell-based
# Description: PCLS were obtained from 5 human donors who underwent resection of liver cancer. Replicate slices were collected from healthy margins of the resections and cultured for 4 or 6 days depending on the experimental protocol. In the Nonstimulation Protocol slices were cultured for 6 days and treated for the entire period with DMSO vehicle or 5 μM CRV431. In the Stimulation Protocol slices were rested for 1 day and then administered the cytokines, TGFβ and PDGF-BB, for 3 days to stimulate inflammation and fibrosis. DMSO vehicle, CRV431 (1 and 5 μM), Alk5i (10 μM), obeticholic acid (5 μM), elafibranor (5 μM), resmetirom ([…]), and Aramchol (5 μM) were administered individually as drug treatments in the Stimulation Protocol concurrent with TGFβ+PDGF-BB. Culture medium treatments were replaced daily.
# Four types of evaluations were conducted on the PCLS: (a) secretion of inflammation and fibrosis biomarkers into the culture medium, (b) histological staining and quantitation of Sirius red as a measure of tissue fibrosis, (c) gene expression of inflammation and fibrosis biomarkers by RT-PCR, and (d) RNA sequencing (RNA-Seq) of the complete transcriptome. Each of the four types of evaluation is described below: • (a) Biomarker secretion. Spent culture medium was collected daily from duplicate slices for each treatment. ELISAs were used to quantify secretion of monocyte chemoattractant protein (MCP-1), interleukin-6 (IL-6), tissue inhibitor of metalloproteinase-1 (TIMP1), hyaluronic acid, fibronectin, and collagen 1α1. For each donor the mean level of biomarker secretion in each treatment group was expressed as a percentage change relative to DMSO vehicle, the percentages averaged for all donors, and finally the mean daily percentage change calculated from all days of evaluation. Results are shown in FIG. 8A (secreted markers-% daily average change). • (b) Sirius red histological staining. […] Sirius red was quantified morphometrically in the histological sections as the percentage area with Sirius red staining in 10 sections from each treatment. In the Nonstimulation Protocol the quantity of Sirius red staining was expressed relative to the vehicle group. In the Stimulation Protocol the quantity of Sirius red staining was expressed relative to nonstimulated PCLS (0%) and TGFβ+PDGF-BB-stimulated+vehicle PCLS (100%). Results are shown in FIG. 8B (Sirius red staining for tissue fibrosis). • (c) Gene expression by RT-PCR. RNA was isolated from duplicate liver slices per treatment at the end of the experiments and evaluated by RT-PCR for 5 markers of inflammation and fibrosis: MCP-1, IL-6, TIMP1, αSMA, and collagen 1α1. β actin was used as a reference gene to calculate relative levels of each target gene RNA. […] Results are shown in FIG. 8C (gene expression by RT-PCR). • (d) Gene expression by RNA-Seq. RNA sequencing of the complete transcriptome (30 million reads per sample) was conducted on vehicle and 5 μM CRV431 treatment groups from 3 donors both from the Nonstimulation and Stimulation Protocols. Data were analyzed by bioinformatics software programs to identify genes that were differentially expressed between vehicle and CRV431 treatments.
# For the evaluation done for (d), 12 samples corresponding to 3 different donor slides which underwent 4 different treatments were studied. the comparisons carried out in this analysis are: (1) TGFb/PDGF+CRV vs TGFb/PDGF+Vehicle (V), and (2) Non-stimulated+CRV vs Non-stimulated+Vehicle. […] Table 1. Samples for evaluation (d)
# Quality Control check was performed in all samples. All samples had more than 30 million reads and a quality score average >35 for almost all the bases in the sequences. The duplication levels are expected as it is RNA sequencing, and different copies of the same RNA are expected to be present in the samples. All samples had good amount of reads and quality, therefore all samples passed the QC checked and were included in the analysis. […]
compound,measurement,setting,value
CC[C@@H]1NC(=O)[C@H]([C@H](O)[C@H](C)CCCCCCNC(C)=O)N(C)C(=O)[C@H](C(C)C)N(C)C(=O)[C@H](CC(C)C)N(C)C(=O)[C@H](CC(C)C)N(C)C(=O)[C@@H](C)NC(=O)[C@H](C)NC(=O)[C@H](CC(C)C)N(C)C(=O)[C@H](C(C)C)NC(=O)[C@H](CC(C)C)N(C)C(=O)[C@@H](C)N(C)C1=O [CRV431],log2FoldChange,,0.577
same,log2FoldChange,"gene AC099668.1, Non-stimulated+CRV vs Non-stimulated+Vehicle",1.056
same,log2FoldChange,"gene ADGRD1, Non-stimulated+CRV vs Non-stimulated+Vehicle",−1.126
same,log2FoldChange,"gene AFG1L, Non-stimulated+CRV vs Non-stimulated+Vehicle",1.327
same,log2FoldChange,"gene AGT, Non-stimulated+CRV vs Non-stimulated+Vehicle",−0.627
same,log2FoldChange,"gene AKAP10, Non-stimulated+CRV vs Non-stimulated+Vehicle",−1.249
same,log2FoldChange,"gene ALPK3, Non-stimulated+CRV vs Non-stimulated+Vehicle",−0.621
same,log2FoldChange,"gene AP000347.1, Non-stimulated+CRV vs Non-stimulated+Vehicle",1.809
same,log2FoldChange,"gene APBA1, Non-stimulated+CRV vs Non-stimulated+Vehicle",−1.158
same,log2FoldChange,"gene ARVCF, Non-stimulated+CRV vs Non-stimulated+Vehicle",−0.609
same,log2FoldChange,"gene C4B, Non-stimulated+CRV vs Non-stimulated+Vehicle",−0.506
same,log2FoldChange,"gene CACUL1, Non-stimulated+CRV vs Non-stimulated+Vehicle",−0.94
same,log2FoldChange,"gene CCNK, Non-stimulated+CRV vs Non-stimulated+Vehicle",0.545
same,log2FoldChange,"gene CD5L, Non-stimulated+CRV vs Non-stimulated+Vehicle",1.675
same,log2FoldChange,"gene CD180, Non-stimulated+CRV vs Non-stimulated+Vehicle",1.051
same,log2FoldChange,"gene COL27A1, Non-stimulated+CRV vs Non-stimulated+Vehicle",−0.545
same,log2FoldChange,"gene CXCL5, Non-stimulated+CRV vs Non-stimulated+Vehicle",0.663
same,log2FoldChange,"gene CYP3A4, Non-stimulated+CRV vs Non-stimulated+Vehicle",−2.313
same,log2FoldChange,"gene DAAM2, Non-stimulated+CRV vs Non-stimulated+Vehicle",1.498
same,log2FoldChange,"gene DANCR, Non-stimulated+CRV vs Non-stimulated+Vehicle",0.693
same,log2FoldChange,"gene DGKD, Non-stimulated+CRV vs Non-stimulated+Vehicle",−0.85
same,log2FoldChange,"gene DKK1, Non-stimulated+CRV vs Non-stimulated+Vehicle",1.939
same,log2FoldChange,"gene DUS3L, Non-stimulated+CRV vs Non-stimulated+Vehicle",0.745
same,log2FoldChange,"gene ESM1, Non-stimulated+CRV vs Non-stimulated+Vehicle",−1.157
same,log2FoldChange,"gene FANCI, Non-stimulated+CRV vs Non-stimulated+Vehicle",−1.319
same,log2FoldChange,"gene FSTL 1, Non-stimulated+CRV vs Non-stimulated+Vehicle",−0.595
same,log2FoldChange,"gene GEM, Non-stimulated+CRV vs Non-stimulated+Vehicle",−0.975
same,log2FoldChange,"gene GMPPB, Non-stimulated+CRV vs Non-stimulated+Vehicle",0.715
same,log2FoldChange,"gene GOLGA8A, Non-stimulated+CRV vs Non-stimulated+Vehicle",−0.669
same,log2FoldChange,"gene GYG1, Non-stimulated+CRV vs Non-stimulated+Vehicle",0.94
same,log2FoldChange,"gene HID1, Non-stimulated+CRV vs Non-stimulated+Vehicle",0.716
same,log2FoldChange,"gene HLA-F, Non-stimulated+CRV vs Non-stimulated+Vehicle",−0.727
same,log2FoldChange,"gene HM13, Non-stimulated+CRV vs Non-stimulated+Vehicle",0.528
same,log2FoldChange,"gene HOOK1, Non-stimulated+CRV vs Non-stimulated+Vehicle",−0.998
same,log2FoldChange,"gene IFI6, Non-stimulated+CRV vs Non-stimulated+Vehicle",−1.273
same,log2FoldChange,"gene IFI44L, Non-stimulated+CRV vs Non-stimulated+Vehicle",−2.254
same,log2FoldChange,"gene IFIT2, Non-stimulated+CRV vs Non-stimulated+Vehicle",−0.812
same,log2FoldChange,"gene ISLR, Non-stimulated+CRV vs Non-stimulated+Vehicle",−0.815
same,log2FoldChange,"gene KAT14, Non-stimulated+CRV vs Non-stimulated+Vehicle",0.874
same,log2FoldChange,"gene KIAA0513, Non-stimulated+CRV vs Non-stimulated+Vehicle",−0.98
same,log2FoldChange,"gene KRT81, Non-stimulated+CRV vs Non-stimulated+Vehicle",1.137
same,log2FoldChange,"gene L3MBTL1, Non-stimulated+CRV vs Non-stimulated+Vehicle",−2.03
same,log2FoldChange,"gene LGALS3BP, Non-stimulated+CRV vs Non-stimulated+Vehicle",−0.556
same,log2FoldChange,"gene LILRB4, Non-stimulated+CRV vs Non-stimulated+Vehicle",0.909
same,log2FoldChange,"gene LILRB5, Non-stimulated+CRV vs Non-stimulated+Vehicle",1.075
same,log2FoldChange,"gene MANF, Non-stimulated+CRV vs Non-stimulated+Vehicle",0.682
same,log2FoldChange,"gene MEG3, Non-stimulated+CRV vs Non-stimulated+Vehicle",−0.682
same,log2FoldChange,"gene MIR194-2HG, Non-stimulated+CRV vs Non-stimulated+Vehicle",−2.973
same,log2FoldChange,"gene MLLT10, Non-stimulated+CRV vs Non-stimulated+Vehicle",−1.19
same,log2FoldChange,"gene MT-CO1, Non-stimulated+CRV vs Non-stimulated+Vehicle",−1.083
same,log2FoldChange,"gene MTCO1P12, Non-stimulated+CRV vs Non-stimulated+Vehicle",−1.183
same,log2FoldChange,"gene NOTCH3, Non-stimulated+CRV vs Non-stimulated+Vehicle",−0.564
same,log2FoldChange,"gene NUGGC, Non-stimulated+CRV vs Non-stimulated+Vehicle",1.136
same,log2FoldChange,"gene PALM2-AKAP2, Non-stimulated+CRV vs Non-stimulated+Vehicle",−1.035
same,log2FoldChange,"gene PAN2, Non-stimulated+CRV vs Non-stimulated+Vehicle",0.742
same,log2FoldChange,"gene PDE4C, Non-stimulated+CRV vs Non-stimulated+Vehicle",−0.669
same,log2FoldChange,"gene PDZD2, Non-stimulated+CRV vs Non-stimulated+Vehicle",−1.468
same,log2FoldChange,"gene PEG10, Non-stimulated+CRV vs Non-stimulated+Vehicle",1.463
same,log2FoldChange,"gene PFKFB3, Non-stimulated+CRV vs Non-stimulated+Vehicle",−0.545
same,log2FoldChange,"gene PLTP, Non-stimulated+CRV vs Non-stimulated+Vehicle",−0.584
same,log2FoldChange,"gene PLXNA2, Non-stimulated+CRV vs Non-stimulated+Vehicle",1.719
same,log2FoldChange,"gene R3HDM2, Non-stimulated+CRV vs Non-stimulated+Vehicle",−0.678
same,log2FoldChange,"gene RAD51D, Non-stimulated+CRV vs Non-stimulated+Vehicle",1.387
same,log2FoldChange,"gene RARRES2, Non-stimulated+CRV vs Non-stimulated+Vehicle",−0.766
same,log2FoldChange,"gene RFX1, Non-stimulated+CRV vs Non-stimulated+Vehicle",−1.495
same,log2FoldChange,"gene SCRIB, Non-stimulated+CRV vs Non-stimulated+Vehicle",0.661
same,log2FoldChange,"gene SEC11C, Non-stimulated+CRV vs Non-stimulated+Vehicle",0.844
same,log2FoldChange,"gene SEC24D, Non-stimulated+CRV vs Non-stimulated+Vehicle",0.58
same,log2FoldChange,"gene SEC61B, Non-stimulated+CRV vs Non-stimulated+Vehicle",0.602
same,log2FoldChange,"gene SELL, Non-stimulated+CRV vs Non-stimulated+Vehicle",2.035
same,log2FoldChange,"gene SIPA1L3, Non-stimulated+CRV vs Non-stimulated+Vehicle",−0.652
same,log2FoldChange,"gene SKI, Non-stimulated+CRV vs Non-stimulated+Vehicle",−0.931
same,log2FoldChange,"gene SLC2A1, Non-stimulated+CRV vs Non-stimulated+Vehicle",−0.635
same,log2FoldChange,"gene SLC29A1, Non-stimulated+CRV vs Non-stimulated+Vehicle",−0.53
same,log2FoldChange,"gene SPCS3, Non-stimulated+CRV vs Non-stimulated+Vehicle",0.715
same,log2FoldChange,"gene SSR4, Non-stimulated+CRV vs Non-stimulated+Vehicle",0.564
same,log2FoldChange,"gene SYNGAP1, Non-stimulated+CRV vs Non-stimulated+Vehicle",−1.718
same,log2FoldChange,"gene SYNRG, Non-stimulated+CRV vs Non-stimulated+Vehicle",−0.74
same,log2FoldChange,"gene TMEM154, Non-stimulated+CRV vs Non-stimulated+Vehicle",−1.351
same,log2FoldChange,"gene TNFSF14, Non-stimulated+CRV vs Non-stimulated+Vehicle",−0.681
same,log2FoldChange,"gene TRPV6, Non-stimulated+CRV vs Non-stimulated+Vehicle",0.83
same,log2FoldChange,"gene TTLL3, Non-stimulated+CRV vs Non-stimulated+Vehicle",−0.579
same,log2FoldChange,"gene UHRF2, Non-stimulated+CRV vs Non-stimulated+Vehicle",−0.778
same,log2FoldChange,"gene UNKL, Non-stimulated+CRV vs Non-stimulated+Vehicle",−0.916
same,log2FoldChange,"gene WNK1, Non-stimulated+CRV vs Non-stimulated+Vehicle",−0.698
same,log2FoldChange,"gene XAF1, Non-stimulated+CRV vs Non-stimulated+Vehicle",−0.725
